Measured values from article PMC8934646.

Protein sequences, listed by entry. Tags and fused reporters are not part of them.
UniProt Q9BUQ8: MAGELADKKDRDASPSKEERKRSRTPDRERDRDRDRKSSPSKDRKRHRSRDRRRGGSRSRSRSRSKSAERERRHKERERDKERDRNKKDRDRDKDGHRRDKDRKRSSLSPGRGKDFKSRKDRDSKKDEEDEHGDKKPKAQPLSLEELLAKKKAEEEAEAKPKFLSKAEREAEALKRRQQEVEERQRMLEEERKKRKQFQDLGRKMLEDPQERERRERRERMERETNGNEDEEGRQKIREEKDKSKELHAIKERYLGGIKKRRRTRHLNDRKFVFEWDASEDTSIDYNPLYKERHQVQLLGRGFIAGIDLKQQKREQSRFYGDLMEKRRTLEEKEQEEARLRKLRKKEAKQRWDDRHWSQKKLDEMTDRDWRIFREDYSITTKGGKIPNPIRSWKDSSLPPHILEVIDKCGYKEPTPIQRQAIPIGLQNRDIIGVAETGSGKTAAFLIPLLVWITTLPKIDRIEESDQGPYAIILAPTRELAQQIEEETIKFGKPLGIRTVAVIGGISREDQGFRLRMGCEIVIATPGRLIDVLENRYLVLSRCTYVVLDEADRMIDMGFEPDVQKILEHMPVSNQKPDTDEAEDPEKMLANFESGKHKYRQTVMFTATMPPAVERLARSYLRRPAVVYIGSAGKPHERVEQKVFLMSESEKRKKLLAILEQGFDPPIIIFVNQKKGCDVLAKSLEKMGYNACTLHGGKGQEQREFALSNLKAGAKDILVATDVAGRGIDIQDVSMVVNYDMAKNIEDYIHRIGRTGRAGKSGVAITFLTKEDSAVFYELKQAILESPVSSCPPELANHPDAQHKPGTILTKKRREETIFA
UniProt O75643: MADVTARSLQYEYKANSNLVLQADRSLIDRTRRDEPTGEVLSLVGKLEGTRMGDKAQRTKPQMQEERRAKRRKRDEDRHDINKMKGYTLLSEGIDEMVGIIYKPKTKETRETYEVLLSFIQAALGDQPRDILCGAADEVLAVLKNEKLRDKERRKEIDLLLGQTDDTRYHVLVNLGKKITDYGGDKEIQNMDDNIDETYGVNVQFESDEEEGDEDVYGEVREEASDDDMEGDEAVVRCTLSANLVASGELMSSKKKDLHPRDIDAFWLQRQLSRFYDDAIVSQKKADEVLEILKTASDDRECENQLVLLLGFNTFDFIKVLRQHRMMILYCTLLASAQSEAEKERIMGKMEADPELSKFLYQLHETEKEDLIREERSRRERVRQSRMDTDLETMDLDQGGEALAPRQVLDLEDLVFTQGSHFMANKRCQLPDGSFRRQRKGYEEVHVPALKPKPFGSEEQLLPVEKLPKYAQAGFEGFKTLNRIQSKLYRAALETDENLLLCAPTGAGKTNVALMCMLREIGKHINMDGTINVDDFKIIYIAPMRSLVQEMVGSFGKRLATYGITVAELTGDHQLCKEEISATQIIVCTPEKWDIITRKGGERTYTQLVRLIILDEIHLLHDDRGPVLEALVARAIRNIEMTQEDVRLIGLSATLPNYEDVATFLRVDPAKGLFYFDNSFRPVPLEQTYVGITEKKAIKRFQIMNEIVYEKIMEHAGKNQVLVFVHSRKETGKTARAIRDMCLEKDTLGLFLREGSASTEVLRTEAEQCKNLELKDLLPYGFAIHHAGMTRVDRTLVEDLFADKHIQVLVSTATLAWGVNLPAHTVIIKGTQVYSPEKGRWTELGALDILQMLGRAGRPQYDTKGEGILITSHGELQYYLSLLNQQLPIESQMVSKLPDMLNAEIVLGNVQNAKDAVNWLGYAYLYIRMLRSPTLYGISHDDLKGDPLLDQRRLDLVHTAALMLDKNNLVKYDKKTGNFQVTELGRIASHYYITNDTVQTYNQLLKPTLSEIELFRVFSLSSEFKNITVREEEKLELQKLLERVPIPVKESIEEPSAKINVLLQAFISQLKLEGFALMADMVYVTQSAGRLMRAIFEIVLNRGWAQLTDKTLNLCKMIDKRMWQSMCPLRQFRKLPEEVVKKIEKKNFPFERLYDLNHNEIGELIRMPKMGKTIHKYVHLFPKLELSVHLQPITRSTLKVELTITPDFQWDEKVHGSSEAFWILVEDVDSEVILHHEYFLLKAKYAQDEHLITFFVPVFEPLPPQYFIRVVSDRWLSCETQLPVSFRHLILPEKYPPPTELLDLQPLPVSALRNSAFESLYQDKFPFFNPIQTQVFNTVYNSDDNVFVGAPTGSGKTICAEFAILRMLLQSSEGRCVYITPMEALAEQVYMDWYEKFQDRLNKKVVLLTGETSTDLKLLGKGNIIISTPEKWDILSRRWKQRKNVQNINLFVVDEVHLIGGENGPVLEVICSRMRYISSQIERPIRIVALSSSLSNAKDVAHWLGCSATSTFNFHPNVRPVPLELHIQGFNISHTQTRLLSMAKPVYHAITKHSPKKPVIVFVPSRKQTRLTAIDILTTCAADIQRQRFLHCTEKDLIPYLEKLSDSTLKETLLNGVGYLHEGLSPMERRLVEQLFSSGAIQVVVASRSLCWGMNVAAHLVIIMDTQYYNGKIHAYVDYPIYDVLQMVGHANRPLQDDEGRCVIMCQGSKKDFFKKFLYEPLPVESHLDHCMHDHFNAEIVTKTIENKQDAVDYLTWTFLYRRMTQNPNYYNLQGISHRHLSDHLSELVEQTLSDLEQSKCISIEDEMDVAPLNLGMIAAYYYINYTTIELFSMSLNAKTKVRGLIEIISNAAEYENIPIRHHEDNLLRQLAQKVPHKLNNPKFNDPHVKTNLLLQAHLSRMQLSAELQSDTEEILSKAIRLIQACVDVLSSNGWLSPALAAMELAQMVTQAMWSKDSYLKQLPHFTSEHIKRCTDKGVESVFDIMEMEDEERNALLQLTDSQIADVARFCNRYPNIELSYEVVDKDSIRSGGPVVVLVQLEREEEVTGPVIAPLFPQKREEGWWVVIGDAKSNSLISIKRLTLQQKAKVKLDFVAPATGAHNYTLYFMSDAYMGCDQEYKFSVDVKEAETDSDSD

Legend:
[1] = target: TSSC4^wt-Flag, C-terminally 3xFlag-HBH-tagged, stable cell line (human) (UniProt Q9Y5U2); assay: affinity purification with mass spectrometry; Flag-IP (Flag M2 affinity gel) from 500 μg nuclear extract of Flp-In T-REx 293 cells stably expressing 3xFlag-HBH-tagged TSSC4^wt or TSSC4^V3; 10 mM HEPES-NaOH pH 7.3, 150 mM NaCl, 10 mM MgCl2, 10 mM KCl, 0.5 mM EGTA, benzonase; 3xFlag peptide elution; label-free LC-MS against unmodified cells
[2] = target: T1, TSSC4^V3-Flag, C-terminally 3xFlag-HBH-tagged, stable cell line (human) (UniProt Q9Y5U2); assay: as above
T1 sequence: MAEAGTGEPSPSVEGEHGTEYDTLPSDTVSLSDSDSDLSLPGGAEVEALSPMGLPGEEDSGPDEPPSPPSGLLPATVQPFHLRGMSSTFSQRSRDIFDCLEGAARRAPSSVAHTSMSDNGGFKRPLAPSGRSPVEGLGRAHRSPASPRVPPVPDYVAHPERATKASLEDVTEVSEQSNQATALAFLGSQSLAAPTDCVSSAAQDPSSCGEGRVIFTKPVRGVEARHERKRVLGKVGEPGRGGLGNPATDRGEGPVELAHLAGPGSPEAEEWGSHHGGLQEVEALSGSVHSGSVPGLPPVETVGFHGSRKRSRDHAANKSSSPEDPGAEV

Substance	binding [1]	binding [2]
CXORF56 (from UniProt Q9H5V9 1-222)	binds	binds
PRPF28/DDX23 (from UniProt Q9BUQ8 1-820) (enzyme)	–	binds
SNRNP200 (endogenous) (from UniProt O75643 1-2136) (enzyme)	binds	–
TXNL4 (human (endogenous in HEK293))	–	no binding

These are yes or no findings as the source states them, for the method shown. In cells and extracts the contact can be indirect. A yes stands for co-enrichment or nearness to the bait. Other partners may have been found. For some assays here: A no says only that the protein was not detected with the bait. For some assays here: Tags and fused reporters may be left off the sequences shown.
